{"source": "paper PMC11645656", "about": "“MRGPRX4 mediates phospho-drug associated pruritus in a humanized mouse model” (Science translational medicine, 2024)", "key": {"[1]": {"system": "NP2-X4+ mice (MRGPRX4 in Mrgpra3+ NP2 sensory neurons)", "assay": "Itch behavioral study (scratching bouts after subcutaneous nape injection) in NP2-X4+ mice", "assay_type": "in vivo, mouse", "details": "50 μl 10 mM nape injection, 30 min"}, "WT NP1-3 DRG neurons": {"system": "WT NP1-3 DRG neurons", "assay": "GCaMP6s calcium imaging of NP1-3 DRG neurons from Pirt-Cre; Rosa-lsl-GCaMP6s mice", "assay_type": "cell-based, mouse", "details": "10 µM"}}}
{"smiles": "C[C@@H]1C[C@H]2[C@@H]3CCC4=CC(=O)C=C[C@]4(C)[C@@]3(F)[C@@H](O)C[C@]2(C)[C@@]1(O)C(=O)COP(=O)(O)O", "note": "[Dexamethasone phosphate]", "values": [{"measurement": "Scratching / itch behavior, NP2-X4+ mice vs WT littermates", "setting": "[1]", "result": "significantly increased scratching behavior"}, {"measurement": "Activation of NP1–3 neuron populations", "setting": "WT NP1-3 DRG neurons", "result": "few neurons were activated"}]}
